Reference: PubChem BioAssay AID652243 (Drosophila RNAi Screening Center, 2013)
In all, the deposit lists about 24,000 reagents; below is an unselected part of those with a known target gene and a result. Over the whole deposit, 246 (1%) were called active. 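Plates not normalised; calls are printed but the firefly/Renilla ratio behind them is not deposited; fold cut for lowering reported inconsistently.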 Raw values are not corrected between plates. The record does not give: the amount of reagent.

- Aim: 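Fly regulators of androgen-dependent reporter output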 (primary screen)
- System: Drosophila S2R+ cells
- Reagents: long dsRNA against Drosophila genes
- Duration: 72 h (48 h, then 24 h hormone)
- Treatment: synthetic androgen R1881 at 10 nM for 24 h
- Detection: 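Firefly light from an androgen-responsive reporter and Renilla control light per well, raw and unnormalised, for each of two replicates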
- Reading the numbers: firefly reporter light: higher = more light from androgen-responsive reporter; Renilla control light: higher = more constitutive control signal (cell number, transfection)
- Hit rule: 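Hit when the log firefly-to-Renilla ratio dropped or increased by a fixed fold versus the mean of GFP or LacZ controls across duplicate plates; lowering cut given as 1.5 and as 3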
- Calls: active = hit: reporter lowered or raised; inactive = no hit

to (takeout) [SID104196878] gave firefly reporter light, replicate 1 = 1.76e5; firefly reporter light, replicate 2 = 2.39e5; Renilla control light, replicate 1 = 2.41e6; Renilla control light, replicate 2 = 2.49e6; inactive.
After knock-down of to (takeout) [SID104207619] the results were firefly reporter light, replicate 1 = 4.26e5; firefly reporter light, replicate 2 = 4.91e5; Renilla control light, replicate 1 = 1.32e6; Renilla control light, replicate 2 = 1.30e6; inactive.
With knock-down of CG14445 [SID104197730], the screen gave firefly reporter light, replicate 1 = 1.99e5; firefly reporter light, replicate 2 = 3.03e5; Renilla control light, replicate 1 = 2.04e6; Renilla control light, replicate 2 = 2.63e6; inactive.
With knock-down of CG14445 [SID104203053], the record shows firefly reporter light, replicate 1 = 1.11e6; firefly reporter light, replicate 2 = 9.70e5; Renilla control light, replicate 1 = 9.25e5; Renilla control light, replicate 2 = 9.04e5; inactive.
After knock-down of CG8299 [SID104186931], the screen gave firefly reporter light, replicate 1 = 39544; firefly reporter light, replicate 2 = 46935; Renilla control light, replicate 1 = 8.66e5; Renilla control light, replicate 2 = 8.66e5; inactive.
CG8299 [SID104204125] showed firefly reporter light, replicate 1 = 1.59e6; firefly reporter light, replicate 2 = 1.39e6; Renilla control light, replicate 1 = 1.45e6; Renilla control light, replicate 2 = 1.48e6; inactive.
CG17191 [SID104194977] showed firefly reporter light, replicate 1 = 1.77e5; firefly reporter light, replicate 2 = 2.32e5; Renilla control light, replicate 1 = 1.18e6; Renilla control light, replicate 2 = 2.34e6; inactive.
After knock-down of CG17191 [SID104203045], the record shows firefly reporter light, replicate 1 = 6.98e5; firefly reporter light, replicate 2 = 6.35e5; Renilla control light, replicate 1 = 7.22e5; Renilla control light, replicate 2 = 6.80e5; inactive.
After knock-down of Acp24A4 (Accessory gland protein 24A4) [SID104201844], the screen gave firefly reporter light, replicate 1 = 8.85e5; firefly reporter light, replicate 2 = 9.34e5; Renilla control light, replicate 1 = 1.20e6; Renilla control light, replicate 2 = 8.53e5; inactive.
Against Cp16 (Chorion protein 16) [SID104190911] the deposit lists firefly reporter light, replicate 1 = 2.45e5; firefly reporter light, replicate 2 = 2.50e5; Renilla control light, replicate 1 = 2.47e6; Renilla control light, replicate 2 = 2.60e6; inactive.
Knock-down of Cp16 (Chorion protein 16) [SID104204094] resulted in: firefly reporter light, replicate 1 = 8.57e5; firefly reporter light, replicate 2 = 5.52e5; Renilla control light, replicate 1 = 6.93e5; Renilla control light, replicate 2 = 4.71e5; inactive.
ChT (Choline transporter) [SID104196088] scored firefly reporter light, replicate 1 = 59608; firefly reporter light, replicate 2 = 51514; Renilla control light, replicate 1 = 4.07e5; Renilla control light, replicate 2 = 3.66e5; inactive.
Acbp3 (Acyl-CoA binding protein 3) [SID104190814] scored firefly reporter light, replicate 1 = 2.09e5; firefly reporter light, replicate 2 = 2.07e5; Renilla control light, replicate 1 = 2.64e6; Renilla control light, replicate 2 = 2.63e6; inactive.
Acbp3 (Acyl-CoA binding protein 3) [SID104203902] showed firefly reporter light, replicate 1 = 6.85e5; firefly reporter light, replicate 2 = 6.86e5; Renilla control light, replicate 1 = 1.40e6; Renilla control light, replicate 2 = 1.62e6; inactive.
Silencing of CG13332 [SID104186159] came out at: firefly reporter light, replicate 1 = 1.36e5; firefly reporter light, replicate 2 = 1.40e5; Renilla control light, replicate 1 = 2.76e6; Renilla control light, replicate 2 = 2.76e6; inactive.
Depletion of CG6984 [SID104186805] came out at: firefly reporter light, replicate 1 = 4.13e5; firefly reporter light, replicate 2 = 2.84e5; Renilla control light, replicate 1 = 3.46e5; Renilla control light, replicate 2 = 2.68e5; inactive.
Against Actn3 (alpha actinin 3) [SID104193898], the values are firefly reporter light, replicate 1 = 1.76e5; firefly reporter light, replicate 2 = 1.93e5; Renilla control light, replicate 1 = 2.07e6; Renilla control light, replicate 2 = 3.14e6; inactive.

Records listed so far whose gene name starts with A or a:
Acp24A4 (Accessory gland protein 24A4) [SID104201844] → firefly reporter light, replicate 1: 8.85e5; firefly reporter light, replicate 2: 9.34e5; Renilla control light, replicate 1: 1.20e6; Renilla control light, replicate 2: 8.53e5; Outcome: inactive
Acbp3 (Acyl-CoA binding protein 3) [SID104190814] → firefly reporter light, replicate 1: 2.09e5; firefly reporter light, replicate 2: 2.07e5; Renilla control light, replicate 1: 2.64e6; Renilla control light, replicate 2: 2.63e6; Outcome: inactive
Acbp3 (Acyl-CoA binding protein 3) [SID104203902] → firefly reporter light, replicate 1: 6.85e5; firefly reporter light, replicate 2: 6.86e5; Renilla control light, replicate 1: 1.40e6; Renilla control light, replicate 2: 1.62e6; Outcome: inactive
Actn3 (alpha actinin 3) [SID104193898] → firefly reporter light, replicate 1: 1.76e5; firefly reporter light, replicate 2: 1.93e5; Renilla control light, replicate 1: 2.07e6; Renilla control light, replicate 2: 3.14e6; Outcome: inactive

More entries follow:
Against Zasp52 (Z band alternatively spliced PDZ-motif protein 52) [SID104186061] the deposit lists firefly reporter light, replicate 1 = 34522; firefly reporter light, replicate 2 = 22295; Renilla control light, replicate 1 = 6.85e5; Renilla control light, replicate 2 = 6.85e5; inactive.
Zasp52 (Z band alternatively spliced PDZ-motif protein 52) [SID104186913] scored firefly reporter light, replicate 1 = 1.07e5; firefly reporter light, replicate 2 = 1.56e5; Renilla control light, replicate 1 = 1.86e6; Renilla control light, replicate 2 = 1.86e6; inactive.
Silencing of Edem1 (ER degradation enhancer, mannosidase alpha-like 1) [SID104198365] resulted in: firefly reporter light, replicate 1 = 78100; firefly reporter light, replicate 2 = 63851; Renilla control light, replicate 1 = 5.73e5; Renilla control light, replicate 2 = 4.37e5; inactive.
Against Pi3K68D (Phosphatidylinositol 3-kinase 68D) [SID104191045] the deposit lists firefly reporter light, replicate 1 = 1.24e6; firefly reporter light, replicate 2 = 1.21e6; Renilla control light, replicate 1 = 2.04e6; Renilla control light, replicate 2 = 1.52e6; inactive.
Against Pi3K68D (Phosphatidylinositol 3-kinase 68D) [SID104207404], the values are firefly reporter light, replicate 1 = 3.33e5; firefly reporter light, replicate 2 = 4.38e5; Renilla control light, replicate 1 = 1.34e6; Renilla control light, replicate 2 = 1.01e6; inactive.
Knock-down of Pi3K68D (Phosphatidylinositol 3-kinase 68D) [SID104214600] gave: inactive.
With knock-down of ort (ora transientless) [SID104196032], the record shows firefly reporter light, replicate 1 = 2.15e5; firefly reporter light, replicate 2 = 3.67e5; Renilla control light, replicate 1 = 2.81e6; Renilla control light, replicate 2 = 3.17e6; inactive.
Depletion of CG34396 [SID104184037] gave: firefly reporter light, replicate 1 = 1.78e5; firefly reporter light, replicate 2 = 2.49e5; Renilla control light, replicate 1 = 1.58e6; Renilla control light, replicate 2 = 1.96e6; inactive.
For CG34396 [SID104184038] the deposit lists firefly reporter light, replicate 1 = 1.15e5; firefly reporter light, replicate 2 = 2.47e5; Renilla control light, replicate 1 = 8.45e5; Renilla control light, replicate 2 = 1.38e6; inactive.
CG34396 [SID104208218] showed firefly reporter light, replicate 1 = 2.86e5; firefly reporter light, replicate 2 = 5.44e5; Renilla control light, replicate 1 = 6.85e5; Renilla control light, replicate 2 = 6.85e5; inactive.
